Test results taken from PubChem BioAssay AID504467 (National Center for Advancing Translational Sciences (NCATS), 2011).
Among all 330,000 compounds or so, about 7,700 (2.3%) were called active. This list was built around the results that the source calls inconclusive (neither active nor inactive); the mix of calls is not that of the screen. Calls follow the shape of the dose curve; as a rule, active = well fitted inhibition curve with a large enough effect; inconclusive = small, poorly fitted or top-dose-only effect, or effect the other way; inactive = flat fitted curve, though single readings scatter. Potencies of inconclusive entries are doubtful fits and often do not repeat.

Experiment: qHTS screen for small molecules that inhibit ELG1-dependent DNA repair in human embryonic kidney (HEK293T) cells expressing luciferase-tagged ELG1; also: nearly all actives have a fitted effect of over 55% in size
Details: HEK293T ELG1-luciferase reporter, luminescence, 16 h, DNA damage induced by 5-fluorouridine; series mostly up to 46.1 µM
How it was run: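 DMSO vehicle served as the neutral condition. Each well held 2,000 cells given 5-fluorouridine plus compound; after 16 hr at 37 °C/5% CO2, ONE-Glo was added and luciferase measured 30 min later.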
Potency is read from the fitted curve at half-maximal effect.

| SMILES | Potency |
| --- | --- |
| C=CCNC(=S)NNC(=O)C(CCC(C)C)CC(C)(C)O (centres undefined) | inactive |
| CN1CCN(C(=S)NC(=O)c2ccc(-c3ccccc3)cc2)CC1 | inactive |
| CN(C)S(=O)(=O)c1ccc(C(=O)OCC(=O)NC(=O)NC2CCCC2)cc1 | inconclusive: 0.0326 µM [inhibitor, full curve, poor fit] |
| CCC(C(=O)NC1CCCCC1)N(Cc1cccs1)C(=O)CCC(=O)Nc1cc(C)on1 (centres undefined) | inconclusive: 10.3 µM [inhibitor, partial curve, poor fit] |
| Cc1[nH]c(C)c(S(=O)(=O)NCCc2ccc(S(N)(=O)=O)cc2)c1C(=O)N1CCCC1 | inconclusive: 6.51 µM [activator, partial curve, poor fit] |
| COc1ccc(NS(=O)(=O)c2cc(NC(=O)[C@@H](NC(=O)c3ccccc3)C(C)C)ccc2C)cc1 | inconclusive: 14.6 µM [inhibitor, partial curve] |
| CCOC(=O)Cc1csc(Nc2ccc(Cl)cc2)n1 | inconclusive: 32.6 µM [activator, partial curve, poor fit] |
| CN(C)CC(=O)N1c2ccccc2CCc2ccc(NC(=O)c3ccc(N)cc3)cc21 | inconclusive: 14.6 µM [activator, partial curve, poor fit] |
| CC1Cc2ccccc2N1C1=NS(=O)(=O)c2ccccc21 (centres undefined) | inconclusive: 13 µM [activator, partial curve, poor fit] |
| O=C(CCN1CCN(CCO)CC1)Nc1ccc(C2CCCC2)cc1 | inactive |
| Cc1cccc(N2CCN(C(=O)Cc3ccc(-n4c(=O)[nH]c5ccsc5c4=O)cc3)CC2C)c1 (centres undefined) | inconclusive: 25.9 µM [inhibitor, partial curve, poor fit] |
| Cc1nc2ccccc2c(=O)n1NC(=O)Cc1ccc([N+](=O)[O-])cc1 | inconclusive: 18.3 µM [activator, partial curve, poor fit] |
| COc1cccc(COC(=O)c2ccc3c(c2)NC(=O)C(C)S3)c1OC (centres undefined) | inconclusive: 16.4 µM [inhibitor, partial curve] |
| CC(NCc1cc(Br)ccc1OCC(N)=O)C12CC3CC(CC(C3)C1)C2 (centres undefined) | inconclusive: 35.5 µM [inhibitor, single point] |
| NNC(=O)C=C1CCN(c2ncc(C(F)(F)F)cc2Cl)CC1 | inconclusive: 2.31 µM [activator, full curve, poor fit] |
| CCN(CC)c1ccc(NC(=S)NC(=O)c2cccs2)cc1 | inconclusive: 9.2 µM [activator, partial curve] |
| COc1ccccc1N=c1oc2cc(O)ccc2cc1C(=O)NCC1CCCO1 (centres undefined) | active: 6.51 µM |
| CC1(C)CC(=O)c2cc(NC(=O)c3ccccc3)c(=O)oc2C1 | inconclusive: 11.6 µM [activator, partial curve] |
| COc1ccc(-c2nn(Cc3ccccc3)cc2C(=O)N2CCN(c3ncccn3)CC2)cc1OC | inactive |
| COc1ccc(-c2cc(C(F)(F)F)c(C#N)c(SCC(=O)Nc3nc(C)co3)n2)cc1 | inactive |
| Nc1nnc(CSCc2ccc(Cl)cc2Cl)s1 | inconclusive: 18.4 µM [activator, partial curve, poor fit] |
| CCC(c1nnnn1Cc1ccco1)N1CCN(c2cc(Cl)ccc2C)CC1 (centres undefined) | inactive |
| CCOC(=O)c1c(NC(=S)N2CCCCC2)sc2c1CCN(C(=O)OCC)C2 | inconclusive: 23.1 µM [inhibitor, single point] |

Quoted at random: three entries already listed, in no set order.

| SMILES | Potency |
| --- | --- |
| CC(NCc1cc(Br)ccc1OCC(N)=O)C12CC3CC(CC(C3)C1)C2 (centres undefined) | inconclusive: 35.5 µM [inhibitor, single point] |
| CCOC(=O)c1c(NC(=S)N2CCCCC2)sc2c1CCN(C(=O)OCC)C2 | inconclusive: 23.1 µM [inhibitor, single point] |
| COc1ccccc1N=c1oc2cc(O)ccc2cc1C(=O)NCC1CCCO1 (centres undefined) | active: 6.51 µM |

(further entries)

| SMILES | Potency |
| --- | --- |
| COc1ccc(NC(=O)[C@@H]2CCCN2S(=O)(=O)c2ccc(Cl)cc2)cc1 | inactive |
| Cc1cc(C)c(NC(=O)CN)c(C)c1 | inactive |
| O=C(Cn1nc(Cc2cccnc2)c2ccccc2c1=O)NCC1CCCO1 (centres undefined) | inconclusive: 11.6 µM [activator, partial curve, poor fit] |
| O=C1OC(Cc2ccccn2)C(=O)C1=C1SCCS1 (centres undefined) | inconclusive: 23.1 µM [activator, partial curve] |
| O=C(CSc1ccc(Cl)cc1)NC1CCCc2ccccc21 (centres undefined) | inactive |
| C[C@H]1CN([C@@H](C)CO)C(=O)c2cc(NC(=O)Nc3cccc4ccccc34)ccc2O[C@@H]1CN(C)Cc1ccc(-c2ccccc2)cc1 | inactive |
| COc1ccc(CN2CCN(C(=O)CN3C(=O)C4C5C=CC(C5)C4C3=O)CC2)c(OC)c1OC (centres undefined) | inconclusive: 6.51 µM [inhibitor, partial curve, poor fit] |
| O=C(CCC1CCCN(C(=O)c2ccc(F)c(F)c2)C1)N1CCN(c2ccccn2)CC1 (centres undefined) | inconclusive: 32.6 µM [inhibitor, single point] |
| CCN(CC)c1ccc(S(=O)(=O)N2CCOCC2)cc1NC(=O)CNCc1ccccc1 | inactive |
| O=C(COc1ccc(Cl)cc1Cl)NN=C1c2ccccc2-c2ccccc21 | inconclusive: 29.1 µM [inhibitor, single point] |
| O=C(Nc1ncc(Cl)cn1)c1cccs1 | inconclusive: 16.4 µM [activator, partial curve] |
| Cc1ccc(C(=O)N/N=c2\oc3ccccc3cc2C(N)=O)cc1 | inactive |
| CCCc1n[nH]c(=S)n1Cc1ccco1 | inactive |
| CCOc1cc(NC(=S)NCC2CCCO2)c(OCC)cc1NC(=O)c1ccc(OC)cc1 (centres undefined) | active: 13 µM |
| FC(F)Oc1ccc(NC(=S)NNc2ccnc3cc(Cl)ccc23)cc1 | inactive |
| COc1cc([C@@H]2[C@H]3CNCC=C3C(C#N)=C(N)C2(C#N)C#N)ccc1OC(C)C | inconclusive: 7.94 µM [inhibitor, partial curve] |
| CC(C)Cn1nc(C(=O)Nc2nnc(C3CC3)s2)c2ccccc2c1=O | inactive |
| CC(CCc1ccccc1)NS(=O)(=O)c1ccc(Cl)c(C(=O)O)c1 (centres undefined) | inactive |
| O=C(NC1=NCCS1)C1CCN(S(=O)(=O)c2ccc(Cl)cc2)CC1 | inconclusive: 0.184 µM [inhibitor, full curve, poor fit] |
| COc1cc2c(cc1NC(=O)CCCCCN1C(=O)CCC1=O)oc1ccccc12 | active: 20.6 µM |
| Cc1ccc(NC(=S)N/N=C/c2c(C)[nH]c3ccccc23)cc1 | inactive |
| S=C(Nc1ccc(Br)cc1)N1CCn2cccc2C1c1cccnc1 (centres undefined) | inactive |
| COc1ccc(-c2cc(C(=O)NCC3CCCO3)c3ccccc3n2)c(OC)c1 (centres undefined) | inactive |

| SMILES | Potency |
| --- | --- |
| COc1ccc(C(=O)CSc2n[nH]c(=O)n2Cc2ccco2)cc1 | inactive |
| COc1ccc(C(=O)O)c(OC)n1 | inconclusive: 0.291 µM [activator, partial curve, poor fit] |
| COc1ccccc1N1CCN(C(=O)CSc2ncccc2-c2nc3ccccc3[nH]2)CC1 | inconclusive: 23.1 µM [inhibitor, single point] |
| O=C(CN1CCN(c2ncc(C(F)(F)F)cc2Cl)CC1)NC(=O)NCc1ccccc1 | inconclusive: 1.3 µM [inhibitor, partial curve, poor fit] |
| O=C(Nc1ccc2ccccc2c1)c1cnccn1 | inconclusive: 4.61 µM [activator, partial curve, poor fit] |
| CC(C)COc1cccc(C(=O)Nc2ccc(N3CCOCC3)cc2N2CCOCC2)c1 | inconclusive: 25.9 µM [inhibitor, single point] |
| COc1ccc2c(c1)C(=O)N1[C@H]3c4cc(Cl)ccc4OC[C@@H]3[C@H](c3ccccc3)[C@]1(C)C(=O)N2 | inconclusive: 3.66 µM [inhibitor, single point] |
| COc1ccc(NC(=O)CN2C(=O)C(=O)N(C3CCCC3)C2=O)c(OC)c1 | inconclusive: 11.6 µM [activator, partial curve] |
| CCOc1ncccc1C(=O)Nc1cc(C(F)(F)F)ccc1N1CCOCC1 | inactive |
| CNC(=O)c1csc(Cc2c(Cl)sc3ccc(Cl)cc23)n1 | inconclusive: 23.1 µM [activator, single point] |
| Cc1cc(=O)n2[nH]cc(-c3ccccc3)c2n1 | inactive |
| CN(C)S(=O)(=O)Nc1ccc(NS(=O)(=O)N(C)C)c(S(=O)(=O)c2ccccc2)c1 | inactive |
| CCCCCCSc1ccc([C@@H]2[C@H]3C(=O)N(CC)C(=O)[C@H]3[C@]3(C(=O)OC)CCCCN23)cc1OC | inactive |
| O=C1[C@@H]2[C@H](C(=O)N1O)[C@H]1C=C[C@@H]2C1 | inactive |
| NS(=O)(=O)c1ccc(CNC(=O)C23CC4CC(CC(C4)C2)C3)cc1 | inconclusive: 0.164 µM [inhibitor, single point] |
| CC(C)(C)CC(=O)Nc1nnc(CCc2ccccc2)s1 | inconclusive: 20.6 µM [activator, partial curve] |
| CCOC(=O)c1ccc2c(c1)N(CC#N)C(=O)C(C)(C)O2 | inactive |
| COc1cc2c(=O)n(Cc3ccco3)c(=O)n(CC(=O)c3ccc(Br)cc3)c2cc1OC | inconclusive: 4.61 µM [inhibitor, single point] |
| CC(=O)c1cc(F)c(N2CCN(CCC#N)CC2)cc1C | inconclusive: 18.4 µM [activator, partial curve, poor fit] |
| Cc1noc(C)c1C(=O)OCC(=O)c1cc(C)n(Cc2ccccc2Cl)c1C | inconclusive: 14.6 µM [activator, partial curve] |
| O=C(Nc1nc2ccc(F)cc2s1)c1cccc(S(=O)(=O)N2CCc3ccccc32)c1 | inconclusive: 46.1 µM [inhibitor, partial curve, poor fit] |
| COC(=O)c1ccccc1NC(=O)Cn1nnc(-c2ccc(OC)cc2)n1 | inconclusive: 11.6 µM [inhibitor, partial curve, poor fit] |
| CCc1cc(=O)oc2cc3oc(C)c(C)c3cc12 | inconclusive: 20.6 µM [activator, partial curve, poor fit] |
